Values from PubChem BioAssay AID1159578 (Peter MacCallum Cancer Centre, 2015)

Purpose: 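siRNA pools altering how lymphatic endothelial cells close a scratch wound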 (primary screen)
Cells: human lymphatic endothelial cells
Reagent: siRNA pool against human genes, 40 nM
Duration: 48 h after transfection
Measurement: 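High-content imaging of dye-stained cells in a scratch assay measures filled wound area and nuclei per well; duplicate means given as ratio to mock and robust z-score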
Direction: migration robust z-score: higher = faster migration into the scratch; nuclei per well: higher = more cells in the well
Active means: 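Migration changed when robust z exceeds 2 or falls below -2 and mean nuclei number is at least 3300; otherwise not called changed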
Calls: active = migration changed; inactive = no migration change, or too few cells
This is a random part of about 18,000 reagents. About 1,030 of them (5.7%) count as active. 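Inactive calls also include pools with fewer than 3300 nuclei, whose migration was not assessed.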 Raw values are not corrected between plates. Not all columns of the deposit are shown.

The opening 2 records, ahead of the listing:
gene symbol | migration robust z-score | nuclei per well, duplicate mean | Outcome
PPP2R2A | -0.62 | 5214 | inactive
MAFF | -1.43 | 5029 | inactive

The list itself, from the first entry:
gene symbol | migration robust z-score | nuclei per well, duplicate mean | Outcome
PPP2R2A | -0.62 | 5214 | inactive
MAFF | -1.43 | 5029 | inactive
STIM1 | -0.79 | 5750 | inactive
FFAR3 | 0.42 | 3883 | inactive
RFTN1 | -0.94 | 6366 | inactive
KLHL14 | 0.68 | 5338 | inactive
CDON | -0.24 | 5364 | inactive
PSMF1 | -3.22 | 4636 | active
MYO1G | -0.43 | 5746 | inactive
RASAL2 | -0.98 | 4960 | inactive
FAM3A | -0.74 | 4388 | inactive
GPR22 | 0.1 | 6802 | inactive
SCN8A | 0.44 | 4786 | inactive
NRG3 | 0.69 | 5952 | inactive
FLYWCH1 | 0.44 | 5048 | inactive
ZNF425 | -0.14 | 4678 | inactive
SRI | -0.41 | 5624 | inactive
CDH20 | 1.1 | 6130 | inactive
DPYD | 0.11 | 7472 | inactive
SPINK13 | -0.07 | 5626 | inactive
ZSCAN4 | -0.96 | 5521 | inactive
CD6 | 0.99 | 4187 | inactive
ABHD16A | -1.27 | 5710 | inactive
AGPAT3 | -1.42 | 4401 | inactive
EEIG2 | 1.06 | 4783 | inactive
ADI1 | 1.5 | 5906 | inactive
SH2D4B | 0.62 | 6447 | inactive
NEK6 | -1.48 | 4742 | inactive
RERG | 0.13 | 7393 | inactive
CIMAP1B | -0.52 | 5437 | inactive
PPIAL4A | 2.05 | 6931 | active
DNAJC27 | 0.44 | 5290 | inactive
MRS2 | 0.22 | 5536 | inactive
AMT | -0.9 | 7622 | inactive
ADPRM | -0.25 | 6806 | inactive
CCN3 | -0.21 | 4234 | inactive
ZDHHC6 | -0.3 | 5532 | inactive
LACTB2 | 1.17 | 4544 | inactive
ID2 | -1.01 | 7358 | inactive
